Data: patent US20210032312A1
Substitutions are numbered along the chain they refer to. No constants are given. Whether binding was seen depends on the method and setting. Some binding calls cover weakened binding; strength is not graded here.

Chains of the proteins cited; added tags and fusions are not shown. Residues count along the entry.
UniProt P01732, residues 22-182: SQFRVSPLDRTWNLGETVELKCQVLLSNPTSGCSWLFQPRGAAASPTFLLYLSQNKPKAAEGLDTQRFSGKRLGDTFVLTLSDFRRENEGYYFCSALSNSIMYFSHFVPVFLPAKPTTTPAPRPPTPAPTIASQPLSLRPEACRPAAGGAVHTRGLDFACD

B1: P283HR7P1368_G1 (designed binder)
chain: LPAPKNLVVSRVTEDSARLSWTAPDAAFDSFLITYWEIEPEGEAIFLGVPGSERSYDLTGLKPGTEYRVQINGVKGGTISYPLFAGFTT
B2: P283HR7P1368_G10 (designed binder)
chain: LPAPKNLVVSRVTEDSARLSWTAPDAAFDSFGIAYVEWWHRGEAISLPVPGSERSYDLTGLKPGTEYWVTILGVKGGIISTPLGASFTT
B3: P283HR7P1368_G11 (designed binder)
chain: LPAPKNLVVSRVTEDSARLSWTAPDAAFDSFGIGYAEPAVTGEAISLSVPGSERSYDLTGLKPGTEYWVVIIGVKGGINSYPLGASFTT
B4: P283HR7P1368_H1 (designed binder)
chain: LPAPKNLVVSRVTEDSARLSWTAPDAAFDSFGIAYIETARWGEAISLTVPGSERSYDLTGLKPGTEYNVVIIGVKGGTPSHPLGAPFTT
B5: P283HR7P1368_H8 (designed binder)
chain: LPAPKNLVVSRVTEDSARLSWTAPDAAFDSFGITYLDPRNGEAISLNVPGSERSYDLTGLKPGTEYWVVIIGVKGGINSYPLGASFTT
B6: P282CR9P1358_D10 (designed binder)
chain: LPAPKNLVVSRVTEDSARLSWTAPDAAFDSFLISYPEYPPPGEAIVLTVPGSERSYDLTGLKPGTEYFVIIFGVKGGDTSWPLSAIFTT
B7: P282AR9P1356_A4 (designed binder)
chain: LPAPKNLVVSRVTEDSARLSWVKRPNSFDSFLIQYQESEKVGEAIVLTVPGSERSYDLTGLKPGTEYTVSIYGVDVVDYEGRPRWSNPLSAIFTT
B8: P282CR9P1358_F11 (designed binder)
chain: LPAPKNLVVSRVTEDSARLSWTAPDAAFDSFLIAYPEWPIFEGEAIVLTVPGSERSYDLTGLKPGTEYFVVIYGVKGGEQSSPLSAIFTT
B9: P282CR9P1358_F5 (designed binder)
chain: B6 chain with L32W, Y38W, P41D, F72W, D78E, W81A
B10: P282DR9P1359_A12 (designed binder)
chain: B6 chain with D25E, L32Q, S34A, Y38W, G42R, I70V, F72Q, D78E, T79I
B11: P282DR9P1359_A7 (designed binder)
chain: LPAPKNLVVSRVTEDSARLSWTAPDAAFDSFRIGYPELEKLGYGEAIVLTVPGSERSYDLTGLKPGTEYWVIIWGVKGGENSWPLSAIFTT
B12: P282DR9P1359_A8 (designed binder)
chain: B6 chain with L32R, S34A, Y38W, P40V, P41Q, F72Y, D78E, T79L, W81P
B13: P282DR9P1359_B2 (designed binder)
chain: LPAPKNLVVSRVTEDSARLSWTAPDAAFDSFWIAYTEWPIPYEEAGQEGEAIVLTVPGSERSYDLTGLKPGTEYWVSIYGVKGGPNSQPLSAIFTT
B14: P282DR9P1359_C10 (designed binder)
chain: B6 chain with L32A, S34V, Y38W, P40T, P41D, F68A, I70F, F72W, D78N, T79Q
B15: P282DR9P1359_C11 (designed binder)
chain: B6 chain with L32K, S34A, Y38F, F68Y, F72I, D78T, T79D
B16: P282DR9P1359_C12 (designed binder)
chain: B6 chain with L32Y, Y38W, P40V, F68W, I70V, F72Y, D78A, T79L, W81V
B17: P282DR9P1359_C5 (designed binder)
chain: B8 chain with L32W, A34T, I40D, F41P, E42G, Q80I, S81Y
B18: P282AR9P1356_A6 (designed binder)
chain: B7 chain with V22S, R24T, P25D, N26S, D78Y, Y79I, R82N, R84V, W85F
B19: P282DR9P1359_D12 (designed binder)
chain: B6 chain with L32R, S34A, Y38T, P39A, P40T, P41W, F72Y, D78F, T79E, W81A
B20: P282DR9P1359_E11 (designed binder)
chain: B6 chain with L32Y, Y38W, P41V, F68W, F72Y, D78A, T79I, W81T
B21: P282DR9P1359_E2 (designed binder)
chain: B6 chain with L32N, S34F, Y38I, P39V, P40T, P41W, F68W, I70N, F72V, T79N
B22: P282DR9P1359_E3 (designed binder)
chain: B6 chain with L32A, S34A, Y38L, P40L, P41G, F72Y, D78V, T79E, W81F
B23: P282DR9P1359_E5 (designed binder)
chain: B6 chain with L32A, Y38W, P40V, F72Y, D78L, T79Y, W81A
B24: P282DR9P1359_E6 (designed binder)
chain: B6 chain with L32W, S34A, Y38W, P40V, P41Q, I70V, F72Q, D78T, T79P
B25: P282DR9P1359_E8 (designed binder)
chain: B6 chain with L32Q, S34A, Y38W, P40V, P41I, F68W, F72Q, D78Y
B26: P282DR9P1359_F11 (designed binder)
chain: B6 chain with L32D, S34F, Y38L, P40I, P41H, F68W, I70N, F72T, T79F
B27: P282DR9P1359_F2 (designed binder)
chain: LPAPKNLVVSRVTEDSARLSWTAPDAAFDSFNIAYPEALHPGYGEAIVLTVPGSERSYDLTGLKPGTEYWVIIGGVKGGQKSWPLSAIFTTGGHHHDHH
B28: P282DR9P1359_F3 (designed binder)
chain: B6 chain with L32Y, S34T, Y38W, P40V, P41Q, F68W, F72Y, D78T, T79E, W81E
B29: P282AR9P1356_B9 (designed binder)
chain: LPAPKNLVVSRVTEDSARLSWPEGDRPFFDSFLIQYQESEKVGEAIVLTVPGSERSYDLTGLKPGTEYTVSIYGVDVKWEGNRPVASNPLSAIFTT
B30: P282DR9P1359_F5 (designed binder)
chain: B6 chain with L32Q, S34A, Y38W, F72Q, D78V, T79E
B31: P282DR9P1359_F6 (designed binder)
chain: B6 chain with L32D, S34A, Y38W, P40T, P41T, I70V, F72W, T79H, W81A
B32: P282DR9P1359_F7 (designed binder)
chain: B6 chain with L32A, S34A, Y38W, P41Q, I70V, F72Y, D78S, T79Y, W81A
B33: P282DR9P1359_G4 (designed binder)
chain: LPAPKNLVVSRVTEDSARLSWTAPDAAFDSFEIAYPEWPPPGEAIVLTVPGSERSYDLTGLKPGPEYFVVIQGVKGGDPSFPLSAIFTTGGNHHHHH
B34: P282DR9P1359_G7 (designed binder)
chain: B11 chain with R32A, G34T, P36I, L38K, K40H, L41I, G42E, Y43D, I72P, E80A
B35: P282DR9P1359_H5 (designed binder)
chain: LPAPKNLVVSRVTEDSARLSWTAPDAAFDSFNIAYPEALHPGYGEAIVLTVPGSERSYDLTGLKPGTEYFVVIYGVKGGTNSEPLSAIFTT
B36: P282ER9P1360_A9 (designed binder)
chain: LPAPKNLVVSRVTEDSARLSWTAPDAAFDSFGILYYEPVDSGEAITLPIPGSERSYDLTGLKPGTEYWVVITGVKGGAPSTPLGAIFTT
B37: P282ER9P1360_C1 (designed binder)
chain: B36 chain with A23T, I49V
B38: P282ER9P1360_C4 (designed binder)
chain: B36 chain with L34T, V39N, D40H, S41G, T46S, P48S, I49V, L58P
B39: P282ER9P1360_C6 (designed binder)
chain: B36 chain with P2S
B40: P282AR9P1356_D3 (designed binder)
chain: LPAPKNLVVSRVTEDSARLSWTRHETSFDSFLIQYRESEKVGEAIVLTVPGSERSYDLTGLKPGTEYTVSIYGVVVEYDAAGNPKYSNPLSAIFTT
B41: P282ER9P1360_C8 (designed binder)
chain: B36 chain with I49V, A85T
B42: P282ER9P1360_D11 (designed binder)
chain: B36 chain with I49V, W68F, V70I, T72V, A78Y, T81I, I86A
B43: P282ER9P1360_E4 (designed binder)
chain: B36 chain with I49V, P50L
B44: P282ER9P1360_F11 (designed binder)
chain: LPAPKNLVVSRVTEDSARLSWIAPDAAFDSFSIAYVEAELVGEAIQLVVPGSERSYDLTGLKPGTEYWVVILGVKGGNPSNPLGASFTT
B45: P282ER9P1360_G10 (designed binder)
chain: LPAPKNLVVSRVTEDSARLSWTAPDAAFDSFAIWYVEQHPFGEAIPLFVPGSERSYDLTGLKPGTEYTVGIRGVKGGNFSTPLIAHFTT

Target: recombinant human CD8 alpha fused to Fc fragment of human IgG1 (human) (UniProt P01732)
Assay: ELISA, biotinylated CD8W7 or CD8W13

| Binder | binding |
| --- | --- |
| B1 | binds |
| B2 | binds |
| B3 | binds |
| B4 | binds |
| B5 | binds |
| B6 | binds |
| B7 | binds |
| B8 | binds |
| B9 | binds |
| B10 | binds |
| B11 | binds |
| B12 | binds |
| B13 | binds |
| B14 | binds |
| B15 | binds |
| B16 | binds |
| B17 | binds |
| B18 | binds |
| B19 | binds |
| B20 | binds |
| B21 | binds |
| B22 | binds |
| B23 | binds |

| Binder | binding |
| --- | --- |
| B24 | binds |
| B25 | binds |
| B26 | binds |
| B27 | binds |
| B28 | binds |
| B29 | binds |
| B30 | binds |
| B31 | binds |
| B32 | binds |
| B33 | binds |
| B34 | binds |
| B35 | binds |
| B36 | binds |
| B37 | binds |
| B38 | binds |
| B39 | binds |
| B40 | binds |
| B41 | binds |
| B42 | binds |
| B43 | binds |
| B44 | binds |
| B45 | binds |
